# Measurements published in the supplement of paper PMC8728848.
# This is one part of the list.
# B1: HopZSSI-T (Helicobacter pylori), B5Z6D0 (protein)
# chain: MGSSHHHHHHSSGLVPRGSHMENLYFQGEDNGFFISAGYQIGEAAQMVKNTGELKKLSDTYENLSNLLTNFNNLNQAVTNASSPSEINAAIDNLKANTQGLTGEKTNSPAYQAVYLALNAAVGLWNVIAYNVQCGPGNSSQQSVTFEGQPGHNSSSINCNLTGYNNGVSGPLSIDNFKQLNQAYQVLQQALKQGVPVLNNTNQKIEVKVTTQTNGQSSKETTTTTTTNDAQTLLQEASKMIDVLTTNCPWVNHNPGQNGGAPWGLIRQECVSGFATEFSAVTSMIKNAQEIVTQAQSLNANQNNQNAPQDFNPYTSADRAFAQNMLNHAQAQAKILELADQMKKDLNTIPSQFITNYLAACRIDGTTPSQGVTNNTWGAGCAYVEETITALNNSLAHFGTQAEQIKQSELLARTILDFRGSLSTLNSTYNSITTTASNTPNSPFLKNLISQSTNPNNPGGLQAVYQVNQSAYSQLLSATQELGHNPFRRIGLISSQT
# Legend:
# Test in all cases: glycan array binding signal (z-score within array); higher = stronger binding
# Details in all cases: glycan notation: IUPAC condensed, linker removed
# [1] = target: Gal(b1-4)GlcNAc(b1-3)Gal(b1-4)GlcNAc(b1-3)Gal(b1-4)GlcNAc(b1-2)Man(a1-3)[Gal(b1-4)GlcNAc(b1-3)Gal(b1-4)GlcNAc(b1-3)Gal(b1-4)GlcNAc(b1-2)Man(a1-6)]Man(b1-4)GlcNAc(b1-4)GlcNAc
# Summary of the method: (§1)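 Columns mapping to the same glycan were averaged after glycan names were converted to IUPAC-condensed notation. The data come from 3228 arrays in the Consortium for Functional Glycomics database, limited to those with an available protein sequence. Binding is reported as a within-array Z-score averaged across arrays of one protein sequence and across linkers.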
# [2] = target: Gal(b1-4)GlcNAc(b1-3)Gal(b1-4)GlcNAc(b1-3)Gal(b1-4)GlcNAc(b1-2)Man(a1-3)[Gal(b1-4)GlcNAc(b1-3)Gal(b1-4)GlcNAc(b1-3)Gal(b1-4)GlcNAc(b1-2)Man(a1-6)]Man(b1-4)GlcNAc(b1-4)[Fuc(a1-6)]GlcNAc
# Summary of the method: as §1
# [3] = target: Gal(b1-4)GlcNAc(b1-3)Gal(b1-4)GlcNAc(b1-3)Gal(b1-4)GlcNAc(b1-2)[Gal(b1-4)GlcNAc(b1-3)Gal(b1-4)GlcNAc(b1-3)Gal(b1-4)GlcNAc(b1-6)]Man(a1-6)[Gal(b1-4)GlcNAc(b1-3)Gal(b1-4)GlcNAc(b1-3)Gal(b1-4)GlcNAc(b1-2)Man(a1-3)]Man(b1-4)GlcNAc(b1-4)[Fuc(a1-6)]GlcNAc
# Summary of the method: as §1
# [4] = target: Gal(b1-4)GlcNAc(b1-3)Gal(b1-4)GlcNAc(b1-3)Gal(b1-4)GlcNAc(b1-3)Gal(b1-4)GlcNAc(b1-2)Man(a1-3)[Gal(b1-4)GlcNAc(b1-3)Gal(b1-4)GlcNAc(b1-3)Gal(b1-4)GlcNAc(b1-3)Gal(b1-4)GlcNAc(b1-2)Man(a1-6)]Man(b1-4)GlcNAc(b1-4)GlcNAc
# Summary of the method: as §1
# [5] = target: Gal(b1-4)GlcNAc(b1-3)Gal(b1-4)GlcNAc(b1-3)Gal(b1-4)GlcNAc(b1-3)Gal(b1-4)GlcNAc(b1-2)Man(a1-3)[Gal(b1-4)GlcNAc(b1-3)Gal(b1-4)GlcNAc(b1-3)Gal(b1-4)GlcNAc(b1-3)Gal(b1-4)GlcNAc(b1-2)Man(a1-6)]Man(b1-4)GlcNAc(b1-4)[Fuc(a1-6)]GlcNAc
# Summary of the method: as §1
# [6] = target: Gal(b1-4)GlcNAc(b1-3)Gal(b1-4)GlcNAc(b1-3)Gal(b1-4)GlcNAc(b1-3)Gal(b1-4)GlcNAc(b1-2)[Gal(b1-4)GlcNAc(b1-3)Gal(b1-4)GlcNAc(b1-3)Gal(b1-4)GlcNAc(b1-3)Gal(b1-4)GlcNAc(b1-6)]Man(a1-6)[Gal(b1-4)GlcNAc(b1-3)Gal(b1-4)GlcNAc(b1-3)Gal(b1-4)GlcNAc(b1-3)Gal(b1-4)GlcNAc(b1-2)Man(a1-3)]Man(b1-4)GlcNAc(b1-4)[Fuc(a1-6)]GlcNAc
# Summary of the method: as §1
# [7] = target: Gal(b1-4)GlcNAc(b1-3)Gal(b1-4)GlcNAc(b1-3)Gal(b1-4)GlcNAc(b1-3)Gal(b1-4)GlcNAc(b1-3)Gal(b1-4)GlcNAc(b1-2)Man(a1-3)[Gal(b1-4)GlcNAc(b1-3)Gal(b1-4)GlcNAc(b1-3)Gal(b1-4)GlcNAc(b1-3)Gal(b1-4)GlcNAc(b1-3)Gal(b1-4)GlcNAc(b1-2)Man(a1-6)]Man(b1-4)GlcNAc(b1-4)GlcNAc
# Summary of the method: as §1
# [8] = target: Gal(b1-4)GlcNAc(b1-3)Gal(b1-4)GlcNAc(b1-3)Gal(b1-4)GlcNAc(b1-3)Gal(b1-4)GlcNAc(b1-3)Gal(b1-4)GlcNAc(b1-2)Man(a1-3)[Gal(b1-4)GlcNAc(b1-3)Gal(b1-4)GlcNAc(b1-3)Gal(b1-4)GlcNAc(b1-3)Gal(b1-4)GlcNAc(b1-3)Gal(b1-4)GlcNAc(b1-2)Man(a1-6)]Man(b1-4)GlcNAc(b1-4)[Fuc(a1-6)]GlcNAc
# Summary of the method: as §1
# [9] = target: Gal(b1-4)GlcNAc(b1-3)Gal(b1-4)GlcNAc(b1-3)Gal(b1-4)GlcNAc(b1-3)Gal(b1-4)GlcNAc(b1-3)Gal(b1-4)GlcNAc(b1-2)[Gal(b1-4)GlcNAc(b1-3)Gal(b1-4)GlcNAc(b1-3)Gal(b1-4)GlcNAc(b1-3)Gal(b1-4)GlcNAc(b1-3)Gal(b1-4)GlcNAc(b1-6)]Man(a1-6)[Gal(b1-4)GlcNAc(b1-3)Gal(b1-4)GlcNAc(b1-3)Gal(b1-4)GlcNAc(b1-3)Gal(b1-4)GlcNAc(b1-3)Gal(b1-4)GlcNAc(b1-2)Man(a1-3)]Man(b1-4)GlcNAc(b1-4)[Fuc(a1-6)]GlcNAc
# Summary of the method: as §1
# [10] = target: Gal(b1-4)GlcNAc(b1-3)Gal(b1-4)GlcNAc(b1-3)Gal(b1-4)GlcNAc(b1-3)Gal(b1-4)GlcNAc(b1-3)Gal(b1-4)GlcNAc(b1-3)Gal(b1-4)GlcNAc(b1-2)Man(a1-3)[Gal(b1-4)GlcNAc(b1-3)Gal(b1-4)GlcNAc(b1-3)Gal(b1-4)GlcNAc(b1-3)Gal(b1-4)GlcNAc(b1-3)Gal(b1-4)GlcNAc(b1-3)Gal(b1-4)GlcNAc(b1-2)Man(a1-6)]Man(b1-4)GlcNAc(b1-4)GlcNAc
# Summary of the method: as §1
# [11] = target: Gal(b1-4)GlcNAc(b1-3)Gal(b1-4)GlcNAc(b1-3)GalNAc
# Summary of the method: as §1
# [12] = target: Gal(b1-4)GlcNAc(b1-3)Gal(b1-4)GlcNAc(b1-3)[Gal(b1-4)GlcNAc(b1-3)Gal(b1-4)GlcNAc(b1-6)]GalNAc
# Summary of the method: as §1
# [13] = target: Gal(b1-4)GlcNAc(b1-3)Gal(b1-4)GlcNAc(b1-6)[Gal(b1-3)]GalNAc
# Summary of the method: as §1
# [14] = target: Gal(b1-4)GlcNAc(b1-3)Gal(b1-4)[Fuc(a1-3)]GlcNAc(b1-3)Gal(b1-4)[Fuc(a1-3)]GlcNAc
# Summary of the method: as §1
# [15] = target: Gal(b1-4)GlcNAc(b1-3)GalNAc
# Summary of the method: as §1
# [16] = target: Gal(b1-4)GlcNAc(b1-3)[Fuc(a1-3)GlcNAc(b1-6)]Gal(b1-4)Glc
# Summary of the method: as §1
# [17] = target: Gal(b1-4)GlcNAc(b1-3)[Gal(b1-4)GlcNAc(b1-6)]Gal(b1-4)GlcNAc
# Summary of the method: as §1
# [18] = target: Gal(b1-4)GlcNAc(b1-3)[GlcNAc(b1-6)]Gal(b1-4)GlcNAc
# Summary of the method: as §1
# [19] = target: Gal(b1-4)GlcNAc(b1-6)Gal(b1-4)GlcNAc
# Summary of the method: as §1
binder,measurement,setting,value
B1,glycan array binding signal (z-score),[1],0.315
same,glycan array binding signal (z-score),[2],0.707
same,glycan array binding signal (z-score),[3],-0.129
same,glycan array binding signal (z-score),[4],0.638
same,glycan array binding signal (z-score),[5],1.74
same,glycan array binding signal (z-score),[6],0.699
same,glycan array binding signal (z-score),[7],2.12
same,glycan array binding signal (z-score),[8],1.86
same,glycan array binding signal (z-score),[9],0.695
same,glycan array binding signal (z-score),[10],0.41
same,glycan array binding signal (z-score),[11],0.115
same,glycan array binding signal (z-score),[12],0.016
same,glycan array binding signal (z-score),[13],0.858
same,glycan array binding signal (z-score),[14],-0.202
same,glycan array binding signal (z-score),[15],-0.841
same,glycan array binding signal (z-score),[16],-0.481
same,glycan array binding signal (z-score),[17],-0.007
same,glycan array binding signal (z-score),[18],0.102
same,glycan array binding signal (z-score),[19],-0.411

# In another format: entries from further up.
binder	measurement	setting	value
B1	glycan array binding signal (z-score)	[7]	2.12
same	glycan array binding signal (z-score)	[16]	-0.481
